Data on 10 molecules can be found in patent publication EP4711384A1 (WIO Bioscience Co., Ltd., dated 2026).

Results are given in words; binding and its absence hold for the method and conditions named. Some entries that bind do so weakly or less than the wild type.

This test concerns the target IL-18RAP ECD-hFc (human). Briefly: sandwich ELISA.

B1: Wio-02-03 (R1-C7-GGGGS-Rap-F11) (bispecific antibody)
chain: QVQLQESGGGPVQAEGSLRLSCTASGNLYRDPCMGWFRQAPGKDREGVAAMNTGADSTFYARSVKGRFTISHDNAKNTLYLQMNSVKPEDTAMYYCAASRYCTERTWTWRYDYDYWGQGTQVTVSSGSQVQLQESGGGSVQPGGSLRLSCAASGFTYIPAYMGWFRQAPGKERERVASIKTDGSTTYADSVNGRFTIAQDTAKNTLYLQMDSLKPEDTAMYYCAAYQFGAFRVWGQGTQVTVSS
For the molecule B1, the binding entry is “binds”.

B2: Wio-02-44 (Rap-A10-GGGGS-R1-E12) (bispecific antibody)
chain: QVQLQESGGGLVQAGGSLKLSCAASGYTYGPYCMGWFRQFPGKEREGVAAVGGDGRTWYGNSVKGRFTISQDNAKKTLYLQINALKPEDTAMYYCAADFDRTVCSDDIYDYTYRGQGTQVTVSSGGGGSQVQLQESGGGSVQAGGSLRLSCVASGTTMSMNYMAWFRQAPGKEREGVASIFRSTHYADSVKGRFTIAEDSAKNTVYLQMNSLKPEDTAVYYCAAGRTKPYLTPLAESQYNYWGQGIQVTVSS
Turning to B2, the binding entry is “binds”.

B3: Wio-02-23 (R1-F9-GGGGS-Rap-C10) (bispecific antibody)
chain: QVQLQESGGGSVQAGETLRLSCTASGFTVHDMGWYRQAPGNECELVSTISSDGSTYYADSVKGRFTISQDNAKNTVYLQMNSLKPEDTAVYYCAADHFTGLQLAECKADFGYWGQGTQVTVSSGGGGSQVQLQESGGGSVQPGGSLRLSCAASGFTYIPAYMGWFRQAPGKERERVASISSTDGSTTYADSVKGRFTVSQDTAKNTLYLQMNSLKPEDTAMYYCAAYQFGAFRVWGQGTQVTVSS
B3: the binding result was “binds”.

B4: Wio-02-31 (Rap-C10-GGGGS-R1-F9) (bispecific antibody)
chain: QVQLQESGGGSVQPGGSLRLSCAASGFTYIPAYMGWFRQAPGKERERVASISSTDGSTTYADSVKGRFTVSQDTAKNTLYLQMNSLKPEDTAMYYCAAYQFGAFRVWGQGTQVTVSSGGGGSQVQLQESGGGSVQAGETLRLSCTASGFTVHDMGWYRQAPGNECELVSTISSDGSTYYADSVKGRFTISQDNAKNTVYLQMNSLKPEDTAVYYCAADHFTGLQLAECKADFGYWGQGTQVTVSS
For B4, the binding result is “binds”.

B5: Wio-02-05 (R1-C7-GGGGS-Rap-C10) (bispecific antibody)
chain: QVQLQESGGGPVQAEGSLRLSCTASGNLYRDPCMGWFRQAPGKDREGVAAMNTGADSTFYARSVKGRFTISHDNAKNTLYLQMNSVKPEDTAMYYCAASRYCTERTWTWRYDYDYWGQGTQVTVSSGGGGSQVQLQESGGGSVQPGGSLRLSCAASGFTYIPAYMGWFRQAPGKERERVASISSTDGSTTYADSVKGRFTVSQDTAKNTLYLQMNSLKPEDTAMYYCAAYQFGAFRVWGQGTQVTVSS
As to B5, the binding result is on record as “binds”.

B6: Wio-02-09 (R1-C10-GGGGS-Rap-F11) (bispecific antibody)
chain: QVQLQESGGGSVQAGETLRLSCTASGSTFDEYDMGWYRQAPGNKCELVSTISTIDGSTYYADSVKGRFTISQDNTKNTVYLQMNSLKPEDTGVYYCEADDRGTWDRGGCWGQGTQVTVSSGGGGSQVQLQESGGGSVQPGGSLRLSCAASGFTYIPAYMGWFRQAPGKERERVASIKTDGSTTYADSVNGRFTIAQDTAKNTLYLQMDSLKPEDTAMYYCAAYQFGAFRVWGQGTQVTVSS
Regarding B6, the binding entry is listed as “binds”.

B7: Wio-02-29 (Rap-A10-GGGGS-R1-A12) (bispecific antibody)
chain: QVQLQESGGGLVQAGGSLKLSCAASGYTYGPYCMGWFRQFPGKEREGVAAVGGDGRTWYGNSVKGRFTISQDNAKKTLYLQINALKPEDTAMYYCAADFDRTVCSDDIYDYTYRGQGTQVTVSSGGGGSQVQLQESGGGPVQAGGSLRLSCSASTTAYDNACMGWFRQAPGKEREGVASIHLRDRTYYADSVKGRFTLSRDGASKTLYLQMNSLKPEDSGTYYCASSNICNGLNLQGNTYWGQGTQVTVSS
Take B7: the binding result is “binds”.

B8: Wio-02-30 (Rap-C10-GGGGS-R1-C10) (bispecific antibody)
chain: QVQLQESGGGSVQPGGSLRLSCAASGFTYIPAYMGWFRQAPGKERERVASISSTDGSTTYADSVKGRFTVSQDTAKNTLYLQMNSLKPEDTAMYYCAAYQFGAFRVWGQGTQVTVSSGGGGSQVQLQESGGGSVQAGETLRLSCTASGSTFDEYDMGWYRQAPGNKCELVSTISTIDGSTYYADSVKGRFTISQDNTKNTVYLQMNSLKPEDTGVYYCEADDRGTWDRGGCWGQGTQVTVSS
In the case of B8, the binding entry is “binds”.

B9: Wio-02-11 (R1-C10-GGGGS-Rap-C10) (bispecific antibody)
chain: QVQLQESGGGSVQAGETLRLSCTASGSTFDEYDMGWYRQAPGNKCELVSTISTIDGSTYYADSVKGRFTISQDNTKNTVYLQMNSLKPEDTGVYYCEADDRGTWDRGGCWGQGTQVTVSSGGGGSQVQLQESGGGSVQPGGSLRLSCAASGFTYIPAYMGWFRQAPGKERERVASISSTDGSTTYADSVKGRFTVSQDTAKNTLYLQMNSLKPEDTAMYYCAAYQFGAFRVWGQGTQVTVSS
B9: the binding entry is listed as “binds”.

B10: Wio-02-01 (R1-A12-GGGGS-Rap-A10) (bispecific antibody)
chain: QVQLQESGGGPVQAGGSLRLSCSASTTAYDNACMGWFRQAPGKEREGVASIHLRDRTYYADSVKGRFTLSRDGASKTLYLQMNSLKPEDSGTYYCASSNICNGLNLQGNTYWGQGTQVTVSSGGGGSQVQLQESGGGLVQAGGSLKLSCAASGYTYGPYCMGWFRQFPGKEREGVAAVGGDGRTWYGNSVKGRFTISQDNAKKTLYLQINALKPEDTAMYYCAADFDRTVCSDDIYDYTYRGQGTQVTVSS
Consider B10, for which the binding result is “binds”.
